Experiment in all cases: glycan array binding signal (z-score within array); higher = stronger binding
Details in all cases: glycan notation: IUPAC condensed, linker removed

Experiment [1] has as its target GlcNAc(b1-2)[GlcNAc(b1-4)]Man(a1-3)[GlcNAc(b1-4)][GlcNAc(b1-2)[GlcNAc(b1-6)]Man(a1-6)]Man(b1-4)GlcNAc(b1-4)GlcNAc. In a few lines:
(§1)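 The Consortium for Functional Glycomics database supplied 3228 glycan arrays, of which those lacking an available protein sequence were dropped. The binding signal, a within-array Z-score, was averaged across arrays of the same protein sequence and across linkers. Negative scores can be read as non-binding.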

In experiment [2] the target is GlcNAc(b1-2)[GlcNAc(b1-4)]Man(a1-3)[GlcNAc(b1-4)][GlcNAc(b1-2)[GlcNAc(b1-6)]Man(a1-6)]Man(b1-4)GlcNAc(b1-4)[Fuc(a1-6)]GlcNAc. In a few lines:
as §1

Experiment [3] deals with GlcNAc(b1-2)[GlcNAc(b1-6)]Man(a1-6)[GlcNAc(b1-2)Man(a1-3)]Man(b1-4)GlcNAc(b1-4)GlcNAc. In a few lines: as §1
Experiment [4] addresses GlcNAc(b1-2)[GlcNAc(b1-6)]Man(a1-6)[GlcNAc(b1-2)Man(a1-3)]Man(b1-4)GlcNAc(b1-4)[Fuc(a1-6)]GlcNAc. In a few lines: as §1
Experiment [5] addresses GlcNAc(b1-2)[GlcNAc(b1-6)]Man(a1-6)[GlcNAc(b1-4)][GlcNAc(b1-2)Man(a1-3)]Man(b1-4)GlcNAc(b1-4)GlcNAc. In a few lines:
as §1

A further experiment deals with GlcNAc(b1-3)Fuc. In a few lines:
as §1

The target of the next experiment is GlcNAc(b1-3)Gal. In a few lines: as §1
Experiment [6] concerns the target GlcNAc(b1-3)Gal(b1-3)GalNAc. In a few lines: as §1
A further experiment has as its target GlcNAc(b1-3)Gal(b1-4)Glc. In a few lines:
as §1

For experiment [7], the target named is GlcNAc(b1-3)Gal(b1-4)GlcNAc. In a few lines: as §1
The target of experiment [8] is GlcNAc(b1-3)Gal(b1-4)GlcNAc(b1-2)Man(a1-3)[GlcNAc(b1-3)Gal(b1-4)GlcNAc(b1-2)Man(a1-6)]Man(b1-4)GlcNAc(b1-4)GlcNAc. In a few lines:
as §1

Experiment [9] concerns the target GlcNAc(b1-3)Gal(b1-4)GlcNAc(b1-2)Man(a1-3)[GlcNAc(b1-3)Gal(b1-4)GlcNAc(b1-2)Man(a1-6)]Man(b1-4)GlcNAc(b1-4)[Fuc(a1-6)]GlcNAc. In a few lines: as §1
Experiment [10] concerns the target GlcNAc(b1-3)Gal(b1-4)GlcNAc(b1-2)[GlcNAc(b1-3)Gal(b1-4)GlcNAc(b1-6)]Man(a1-6)[GlcNAc(b1-3)Gal(b1-4)GlcNAc(b1-2)Man(a1-3)]Man(b1-4)GlcNAc(b1-4)GlcNAc. In a few lines:
as §1

For experiment [11], the target named is GlcNAc(b1-3)Gal(b1-4)GlcNAc(b1-3)Gal(b1-4)GlcNAc. In a few lines:
as §1

Experiment [12] concerns the target GlcNAc(b1-3)Gal(b1-4)GlcNAc(b1-3)Gal(b1-4)GlcNAc(b1-2)Man(a1-3)[GlcNAc(b1-3)Gal(b1-4)GlcNAc(b1-3)Gal(b1-4)GlcNAc(b1-2)Man(a1-6)]Man(b1-4)GlcNAc(b1-4)GlcNAc. In a few lines:
as §1

Experiment [13] deals with GlcNAc(b1-3)Gal(b1-4)GlcNAc(b1-3)Gal(b1-4)GlcNAc(b1-2)Man(a1-3)[GlcNAc(b1-3)Gal(b1-4)GlcNAc(b1-3)Gal(b1-4)GlcNAc(b1-2)Man(a1-6)]Man(b1-4)GlcNAc(b1-4)[Fuc(a1-6)]GlcNAc. In a few lines: as §1
The target in experiment [14] is GlcNAc(b1-3)Gal(b1-4)GlcNAc(b1-3)Gal(b1-4)GlcNAc(b1-2)[GlcNAc(b1-3)Gal(b1-4)GlcNAc(b1-3)Gal(b1-4)GlcNAc(b1-6)]Man(a1-6)[GlcNAc(b1-3)Gal(b1-4)GlcNAc(b1-3)Gal(b1-4)GlcNAc(b1-2)Man(a1-3)]Man(b1-4)GlcNAc(b1-4)[Fuc(a1-6)]GlcNAc. In a few lines:
as §1

Experiment [15] deals with GlcNAc(b1-3)Gal(b1-4)GlcNAc(b1-3)Gal(b1-4)GlcNAc(b1-3)Gal(b1-4)GlcNAc(b1-2)Man(a1-3)[GlcNAc(b1-3)Gal(b1-4)GlcNAc(b1-3)Gal(b1-4)GlcNAc(b1-3)Gal(b1-4)GlcNAc(b1-2)Man(a1-6)]Man(b1-4)GlcNAc(b1-4)GlcNAc. In a few lines:
as §1

The target in experiment [16] is GlcNAc(b1-3)Gal(b1-4)GlcNAc(b1-3)Gal(b1-4)GlcNAc(b1-3)Gal(b1-4)GlcNAc(b1-2)Man(a1-3)[GlcNAc(b1-3)Gal(b1-4)GlcNAc(b1-3)Gal(b1-4)GlcNAc(b1-3)Gal(b1-4)GlcNAc(b1-2)Man(a1-6)]Man(b1-4)GlcNAc(b1-4)[Fuc(a1-6)]GlcNAc. In a few lines: as §1
For experiment [17], the target named is GlcNAc(b1-3)Gal(b1-4)GlcNAc(b1-3)Gal(b1-4)GlcNAc(b1-3)Gal(b1-4)GlcNAc(b1-2)[GlcNAc(b1-3)Gal(b1-4)GlcNAc(b1-3)Gal(b1-4)GlcNAc(b1-3)Gal(b1-4)GlcNAc(b1-6)]Man(a1-6)[GlcNAc(b1-3)Gal(b1-4)GlcNAc(b1-3)Gal(b1-4)GlcNAc(b1-3)Gal(b1-4)GlcNAc(b1-2)Man(a1-3)]Man(b1-4)GlcNAc(b1-4)[Fuc(a1-6)]GlcNAc. In a few lines:
as §1

Experiment [18] addresses GlcNAc(b1-3)Gal(b1-4)GlcNAc(b1-3)Gal(b1-4)GlcNAc(b1-3)Gal(b1-4)GlcNAc(b1-3)Gal(b1-4)GlcNAc(b1-2)Man(a1-3)[GlcNAc(b1-3)Gal(b1-4)GlcNAc(b1-3)Gal(b1-4)GlcNAc(b1-3)Gal(b1-4)GlcNAc(b1-3)Gal(b1-4)GlcNAc(b1-2)Man(a1-6)]Man(b1-4)GlcNAc(b1-4)GlcNAc. In a few lines: as §1
The target of experiment [19] is GlcNAc(b1-3)Gal(b1-4)GlcNAc(b1-3)Gal(b1-4)GlcNAc(b1-3)Gal(b1-4)GlcNAc(b1-3)Gal(b1-4)GlcNAc(b1-2)Man(a1-3)[GlcNAc(b1-3)Gal(b1-4)GlcNAc(b1-3)Gal(b1-4)GlcNAc(b1-3)Gal(b1-4)GlcNAc(b1-3)Gal(b1-4)GlcNAc(b1-2)Man(a1-6)]Man(b1-4)GlcNAc(b1-4)[Fuc(a1-6)]GlcNAc. In a few lines:
as §1

The target in experiment [20] is GlcNAc(b1-3)Gal(b1-4)GlcNAc(b1-3)Gal(b1-4)GlcNAc(b1-3)Gal(b1-4)GlcNAc(b1-3)Gal(b1-4)GlcNAc(b1-2)[GlcNAc(b1-3)Gal(b1-4)GlcNAc(b1-3)Gal(b1-4)GlcNAc(b1-3)Gal(b1-4)GlcNAc(b1-3)Gal(b1-4)GlcNAc(b1-6)]Man(a1-6)[GlcNAc(b1-3)Gal(b1-4)GlcNAc(b1-3)Gal(b1-4)GlcNAc(b1-3)Gal(b1-4)GlcNAc(b1-3)Gal(b1-4)GlcNAc(b1-2)Man(a1-3)]Man(b1-4)GlcNAc(b1-4)[Fuc(a1-6)]GlcNAc. In a few lines:
as §1

Some of the results follow.

B1: SJCP3842 (Schistosoma japonicum) (protein)
chain: MFKMRIINLVNISTVLLLINLLQTKSRLVGKENGFMLTVSIYGAQLSDKMTSVPVSWTIDYEDPEKSAFKKLVTDSCDTFSEYVKSQIPKGSVDGQCTSHIFQRPGSGSGVSISLTLSFIYVDVTQPDTVALKTELEKHFANFVTIHSHKITQAQFRINQKAIVIPTGDKDAIDGSKWKIIAIIALVALAIVVIGGFIYICVK
As to B1, the “glycan array binding signal (z-score)” value was 0.218 in experiment [1]; 0.364 in experiment [2]; -0.597 in [3]; -0.217 in [4]; -0.547 in experiment [5]; 0.401 with GlcNAc(b1-3)Fuc. The “glycan array binding signal (z-score)” value with GlcNAc(b1-3)Gal is -1.01; in [6], -0.211; with GlcNAc(b1-3)Gal(b1-4)Glc, -0.272; in [7], 0.01; in experiment [8], -0.727; in [9], 1.52. Also, the “glycan array binding signal (z-score)” value in experiment [10] is 0.64; in experiment [11] it was -1.38; in experiment [12], 0.933; in [13] it was 0.736; in experiment [14], 1.43; in [15], -0.42. Further, the “glycan array binding signal (z-score)” value in [16] was 0.763; in experiment [17], 1.87; in [18], -0.488; in experiment [19], 0.912; in [20], 0.976.

The values above are taken from the supplement of paper PMC8728848.
